Reference: article PMC7943793
No constants are given. Whether binding was seen depends on the method and setting. Some entries that bind do so weakly or less than the wild type.

Target: Tet Methylcytosine Dioxygenase 2 (TET2), purified from Sf9 (human), Q6N021
Assay: pull-down; in vitro pulldown with proteins purified from Sf9; CXXC5 incubated with AR and TET2 together; by the methods His-tagged CXXC5 held on Ni-NTA beads, binding buffer with 10 mM imidazole, 4 h at 4 °C; both purified
Settings: remark: other sources report otherwise

binding: binds
B1: Androgen receptor (AR), purified from Sf9, P10275 1-920 (protein)
chain: MEVQLGLGRVYPRPPSKTYRGAFQNLFQSVREVIQNPGPRHPEAASAAPPGASLLLLQQQQQQQQQQQQQQQQQQQQQQQETSPRQQQQQQGEDGSPQAHRRGPTGYLVLDEEQQPSQPQSALECHPERGCVPEPGAAVAASKGLPQQLPAPPDEDDSAAPSTLSLLGPTFPGLSSCSADLKDILSEASTMQLLQQQQQEAVSEGSSSGRAREASGAPTSSKDNYLGGTSTISDNAKELCKAVSVSMGLGVEALEHLSPGEQLRGDCMYAPLLGVPPAVRPTPCAPLAECKGSLLDDSAGKSTEDTAEYSPFKGGYTKGLEGESLGCSGSAAAGSSGTLELPSTLSLYKSGALDEAAAYQSRDYYNFPLALAGPPPPPPPPHPHARIKLENPLDYGSAWAAAAAQCRYGDLASLHGAGAAGPGSGSPSAAASSSWHTLFTAEEGQLYGPCGGGGGGGGGGGGGGGGGGGGGGGEAGAVAPYGYTRPPQGLAGQESDFTAPDVWYPGGMVSRVPYPSPTCVKSEMGPWMDSYSGPYGDMRLETARDHVLPIDYYFPPQKTCLICGDEASGCHYGALTCGSCKVFFKRAAEGKQKYLCASRNDCTIDKFRRKNCPSCRLRKCYEAGMTLGARKLKKLGNLKLQEEGEASSTTSPTEETTQKLTVSHIEGYECQPIFLNVLEAIEPGVVCAGHDNNQPDSFAALLSSLNELGERQLVHVVKWAKALPGFRNLHVDDQMAVIQYSWMGLMVFAMGWRSFTNVNSRMLYFAPDLVFNEYRMHKSRMYSQCVRMRHLSQEFGWLQITPQEFLCMKALLLFSIIPVDGLKNQKFFDELRMNYIKELDRIIACKRKNPTSCSRRFYQLTKLLDSVQPIARELHQFTFDLLIKSHMVSVDFPEMMAEIISVQVPKILSGKVKPIYFHTQ
